The other results are listed elsewhere or left out.
Experiments:
Assay in all cases: log2 fold change, soluble protein after heating vs DMSO (PISA); higher = thermal stabilisation; K562 cells, 10 uM, 30 min; active = over 0.2 and 3.5 SD of the protein, either way, in both replicates (recomputed)
bafetinib = compound: Cc1ccc(NC(=O)c2ccc(CN3CC[C@H](N(C)C)C3)c(C(F)(F)F)c2)cc1Nc1nccc(-c2cncnc2)n1 [bafetinib]
How it was run: (§1)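 Soluble protein was quantified by TMTpro 16plex LC-MS/MS after channel sums were equalised. It was obtained as the supernatant after 21,000xg for 90 min from pooled aliquots of K562 cells (2×10^6 cells/mL, 10 μM compound, 30 min) heated for 3 min across 48°C-58°C and extracted in PBS with 0.5% NP-40 at 4°C. Thermal stability values are relative to control samples and come from duplicates. They are given as log2 fold changes.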

By UniProt entry, the sequences of proteins in these tests, tags left out. Where a name states a change or a piece, a line headed by the entry shows the natural chain unless it says otherwise.
UniProt Q15126: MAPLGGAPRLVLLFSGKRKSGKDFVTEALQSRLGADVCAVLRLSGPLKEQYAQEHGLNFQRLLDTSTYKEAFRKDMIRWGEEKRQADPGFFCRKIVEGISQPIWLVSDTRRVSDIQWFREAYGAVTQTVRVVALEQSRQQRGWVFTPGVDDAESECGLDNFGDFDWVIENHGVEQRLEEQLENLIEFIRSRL
UniProt Q96HA1, whole entry, looked up: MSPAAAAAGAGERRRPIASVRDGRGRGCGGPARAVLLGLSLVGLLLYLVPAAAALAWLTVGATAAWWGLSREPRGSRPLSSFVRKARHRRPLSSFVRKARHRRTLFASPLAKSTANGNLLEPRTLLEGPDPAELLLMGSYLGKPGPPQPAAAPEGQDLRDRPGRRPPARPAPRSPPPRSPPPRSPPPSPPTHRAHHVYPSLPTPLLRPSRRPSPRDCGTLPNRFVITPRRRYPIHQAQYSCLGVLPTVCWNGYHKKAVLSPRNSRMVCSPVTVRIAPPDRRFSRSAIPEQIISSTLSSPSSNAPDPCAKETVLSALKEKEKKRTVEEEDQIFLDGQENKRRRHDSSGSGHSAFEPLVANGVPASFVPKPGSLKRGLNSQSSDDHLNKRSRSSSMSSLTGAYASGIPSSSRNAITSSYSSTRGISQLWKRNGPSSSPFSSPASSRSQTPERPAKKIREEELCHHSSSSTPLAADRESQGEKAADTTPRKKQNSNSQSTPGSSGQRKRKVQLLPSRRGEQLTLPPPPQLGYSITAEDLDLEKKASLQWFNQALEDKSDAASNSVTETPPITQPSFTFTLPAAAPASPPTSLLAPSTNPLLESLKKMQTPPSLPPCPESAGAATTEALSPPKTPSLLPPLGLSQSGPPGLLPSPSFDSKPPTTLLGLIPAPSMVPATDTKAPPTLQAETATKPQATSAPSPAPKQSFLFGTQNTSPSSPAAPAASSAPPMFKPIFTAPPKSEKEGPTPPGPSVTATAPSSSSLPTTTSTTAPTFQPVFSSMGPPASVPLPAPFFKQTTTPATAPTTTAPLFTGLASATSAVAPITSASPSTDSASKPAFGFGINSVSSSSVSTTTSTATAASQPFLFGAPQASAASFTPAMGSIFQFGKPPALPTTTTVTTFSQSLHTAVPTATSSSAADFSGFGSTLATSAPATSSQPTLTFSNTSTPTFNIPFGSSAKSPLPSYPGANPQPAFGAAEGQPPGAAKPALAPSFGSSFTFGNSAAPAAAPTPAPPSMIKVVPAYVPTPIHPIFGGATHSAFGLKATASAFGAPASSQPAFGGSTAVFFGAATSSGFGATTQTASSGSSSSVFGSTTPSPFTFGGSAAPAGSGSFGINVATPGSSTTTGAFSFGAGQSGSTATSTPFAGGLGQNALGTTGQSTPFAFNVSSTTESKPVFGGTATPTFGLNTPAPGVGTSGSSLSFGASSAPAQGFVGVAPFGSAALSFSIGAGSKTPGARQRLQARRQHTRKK
UniProt Q9Y535: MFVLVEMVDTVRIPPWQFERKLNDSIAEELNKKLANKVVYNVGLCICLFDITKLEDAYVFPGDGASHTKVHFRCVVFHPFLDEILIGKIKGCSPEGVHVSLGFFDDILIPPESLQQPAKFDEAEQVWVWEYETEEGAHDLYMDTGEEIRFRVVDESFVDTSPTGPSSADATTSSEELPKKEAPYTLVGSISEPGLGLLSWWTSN
UniProt Q8TD55: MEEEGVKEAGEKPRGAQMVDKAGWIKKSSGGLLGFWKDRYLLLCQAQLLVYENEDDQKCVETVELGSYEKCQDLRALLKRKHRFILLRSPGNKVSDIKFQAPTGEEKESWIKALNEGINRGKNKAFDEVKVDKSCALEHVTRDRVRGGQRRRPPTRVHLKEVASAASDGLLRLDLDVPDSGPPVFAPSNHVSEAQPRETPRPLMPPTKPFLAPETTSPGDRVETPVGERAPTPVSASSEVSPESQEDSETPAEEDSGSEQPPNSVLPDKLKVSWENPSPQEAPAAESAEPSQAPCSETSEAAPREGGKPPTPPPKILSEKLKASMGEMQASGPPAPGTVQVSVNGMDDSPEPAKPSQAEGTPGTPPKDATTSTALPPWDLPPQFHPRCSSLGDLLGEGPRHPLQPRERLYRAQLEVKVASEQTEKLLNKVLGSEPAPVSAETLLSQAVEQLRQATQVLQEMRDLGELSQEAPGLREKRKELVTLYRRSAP
UniProt Q8IY17: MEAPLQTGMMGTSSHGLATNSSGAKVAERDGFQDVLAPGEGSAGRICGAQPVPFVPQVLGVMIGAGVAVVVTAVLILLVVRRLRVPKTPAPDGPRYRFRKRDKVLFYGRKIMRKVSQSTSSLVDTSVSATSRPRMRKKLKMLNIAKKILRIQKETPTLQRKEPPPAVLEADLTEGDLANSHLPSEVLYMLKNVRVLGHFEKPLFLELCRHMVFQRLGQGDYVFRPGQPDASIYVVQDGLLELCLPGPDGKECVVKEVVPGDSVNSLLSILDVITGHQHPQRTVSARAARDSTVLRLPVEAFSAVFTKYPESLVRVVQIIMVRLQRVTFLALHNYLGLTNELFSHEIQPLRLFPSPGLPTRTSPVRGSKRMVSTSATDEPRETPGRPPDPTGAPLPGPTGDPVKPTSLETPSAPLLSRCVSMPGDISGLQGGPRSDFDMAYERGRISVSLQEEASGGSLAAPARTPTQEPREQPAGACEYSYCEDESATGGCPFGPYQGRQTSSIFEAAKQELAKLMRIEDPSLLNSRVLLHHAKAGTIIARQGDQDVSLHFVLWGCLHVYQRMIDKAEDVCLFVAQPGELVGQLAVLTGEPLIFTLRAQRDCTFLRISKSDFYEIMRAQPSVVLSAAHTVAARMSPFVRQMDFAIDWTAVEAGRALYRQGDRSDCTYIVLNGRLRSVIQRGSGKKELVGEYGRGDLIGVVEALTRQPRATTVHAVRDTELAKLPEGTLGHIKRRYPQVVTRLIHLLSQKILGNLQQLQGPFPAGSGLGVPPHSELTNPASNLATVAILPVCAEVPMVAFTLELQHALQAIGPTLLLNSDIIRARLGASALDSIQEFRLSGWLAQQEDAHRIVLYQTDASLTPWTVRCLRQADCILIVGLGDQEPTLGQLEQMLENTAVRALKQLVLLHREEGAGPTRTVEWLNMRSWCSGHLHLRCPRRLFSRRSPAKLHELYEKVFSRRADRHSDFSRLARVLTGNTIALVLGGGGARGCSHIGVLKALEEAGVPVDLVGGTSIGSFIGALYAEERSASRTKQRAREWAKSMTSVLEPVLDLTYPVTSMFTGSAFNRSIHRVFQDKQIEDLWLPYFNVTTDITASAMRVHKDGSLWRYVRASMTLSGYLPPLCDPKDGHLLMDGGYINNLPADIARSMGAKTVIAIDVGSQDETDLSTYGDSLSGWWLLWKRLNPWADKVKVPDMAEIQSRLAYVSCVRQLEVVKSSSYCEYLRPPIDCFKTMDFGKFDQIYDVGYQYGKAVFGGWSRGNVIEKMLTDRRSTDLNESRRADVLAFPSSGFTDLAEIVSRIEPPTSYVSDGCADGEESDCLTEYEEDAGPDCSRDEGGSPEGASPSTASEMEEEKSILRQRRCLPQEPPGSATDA
UniProt O75417: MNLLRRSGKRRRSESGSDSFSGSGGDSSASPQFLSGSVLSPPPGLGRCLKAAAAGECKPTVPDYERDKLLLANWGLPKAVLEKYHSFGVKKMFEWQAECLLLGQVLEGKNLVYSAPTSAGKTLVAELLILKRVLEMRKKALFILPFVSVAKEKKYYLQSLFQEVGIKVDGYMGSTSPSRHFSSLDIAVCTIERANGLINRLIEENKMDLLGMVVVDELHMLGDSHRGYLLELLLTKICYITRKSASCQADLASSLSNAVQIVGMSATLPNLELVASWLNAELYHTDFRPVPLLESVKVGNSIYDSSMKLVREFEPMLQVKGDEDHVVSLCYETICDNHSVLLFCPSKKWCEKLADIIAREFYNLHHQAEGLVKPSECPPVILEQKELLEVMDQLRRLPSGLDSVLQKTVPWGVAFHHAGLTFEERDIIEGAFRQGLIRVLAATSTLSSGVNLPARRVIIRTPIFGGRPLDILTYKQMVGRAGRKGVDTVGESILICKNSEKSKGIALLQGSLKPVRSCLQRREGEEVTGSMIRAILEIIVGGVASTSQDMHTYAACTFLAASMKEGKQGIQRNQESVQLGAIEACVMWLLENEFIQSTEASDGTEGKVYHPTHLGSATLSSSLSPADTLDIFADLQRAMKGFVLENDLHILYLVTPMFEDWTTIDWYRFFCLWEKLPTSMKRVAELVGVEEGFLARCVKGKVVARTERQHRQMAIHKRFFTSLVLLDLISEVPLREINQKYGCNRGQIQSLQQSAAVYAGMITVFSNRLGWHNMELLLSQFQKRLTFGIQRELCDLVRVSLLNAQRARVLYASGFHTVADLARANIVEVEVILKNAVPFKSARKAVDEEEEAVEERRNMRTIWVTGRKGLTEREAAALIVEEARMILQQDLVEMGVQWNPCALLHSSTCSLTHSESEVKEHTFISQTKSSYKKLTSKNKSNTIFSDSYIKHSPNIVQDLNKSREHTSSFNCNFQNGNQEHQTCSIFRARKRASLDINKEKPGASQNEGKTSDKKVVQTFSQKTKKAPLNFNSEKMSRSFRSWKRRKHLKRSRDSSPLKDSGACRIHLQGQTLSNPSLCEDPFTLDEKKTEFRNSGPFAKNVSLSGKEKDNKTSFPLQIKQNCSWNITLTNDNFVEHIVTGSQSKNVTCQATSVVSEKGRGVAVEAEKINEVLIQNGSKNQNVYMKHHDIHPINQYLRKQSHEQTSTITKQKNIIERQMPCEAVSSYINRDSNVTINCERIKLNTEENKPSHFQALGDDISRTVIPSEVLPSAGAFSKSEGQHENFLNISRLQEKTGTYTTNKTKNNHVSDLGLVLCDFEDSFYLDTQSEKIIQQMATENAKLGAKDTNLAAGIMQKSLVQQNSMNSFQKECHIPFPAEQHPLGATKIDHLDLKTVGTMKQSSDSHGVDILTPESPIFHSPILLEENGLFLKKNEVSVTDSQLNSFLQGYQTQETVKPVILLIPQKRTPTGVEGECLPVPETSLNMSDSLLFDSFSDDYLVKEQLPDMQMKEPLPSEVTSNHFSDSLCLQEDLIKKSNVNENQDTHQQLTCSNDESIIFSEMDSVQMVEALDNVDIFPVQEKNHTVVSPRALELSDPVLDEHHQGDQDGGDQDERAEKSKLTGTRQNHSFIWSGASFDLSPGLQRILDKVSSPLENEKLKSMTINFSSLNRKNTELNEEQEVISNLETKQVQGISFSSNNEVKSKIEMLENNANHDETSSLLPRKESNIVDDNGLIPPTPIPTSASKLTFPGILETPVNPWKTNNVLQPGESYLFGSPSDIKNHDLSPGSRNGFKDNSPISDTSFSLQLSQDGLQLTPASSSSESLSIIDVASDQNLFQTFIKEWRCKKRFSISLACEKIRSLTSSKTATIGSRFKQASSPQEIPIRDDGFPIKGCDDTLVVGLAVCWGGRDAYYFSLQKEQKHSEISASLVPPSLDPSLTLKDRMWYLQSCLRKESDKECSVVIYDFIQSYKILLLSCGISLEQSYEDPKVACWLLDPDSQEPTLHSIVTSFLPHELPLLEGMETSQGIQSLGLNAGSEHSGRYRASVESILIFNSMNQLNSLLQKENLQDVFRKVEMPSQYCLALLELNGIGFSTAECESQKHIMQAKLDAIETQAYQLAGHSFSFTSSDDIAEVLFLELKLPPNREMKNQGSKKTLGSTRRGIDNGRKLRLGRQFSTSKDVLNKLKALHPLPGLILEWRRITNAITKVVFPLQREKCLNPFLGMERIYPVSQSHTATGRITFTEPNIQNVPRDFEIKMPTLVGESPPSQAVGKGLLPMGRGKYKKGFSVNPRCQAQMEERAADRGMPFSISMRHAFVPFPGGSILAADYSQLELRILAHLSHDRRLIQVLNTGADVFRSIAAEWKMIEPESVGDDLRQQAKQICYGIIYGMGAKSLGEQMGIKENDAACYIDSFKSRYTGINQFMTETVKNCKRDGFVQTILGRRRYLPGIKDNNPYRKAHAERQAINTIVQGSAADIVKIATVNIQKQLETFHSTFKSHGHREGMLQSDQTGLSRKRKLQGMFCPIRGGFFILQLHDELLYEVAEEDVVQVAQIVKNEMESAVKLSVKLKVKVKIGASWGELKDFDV
UniProt P41247: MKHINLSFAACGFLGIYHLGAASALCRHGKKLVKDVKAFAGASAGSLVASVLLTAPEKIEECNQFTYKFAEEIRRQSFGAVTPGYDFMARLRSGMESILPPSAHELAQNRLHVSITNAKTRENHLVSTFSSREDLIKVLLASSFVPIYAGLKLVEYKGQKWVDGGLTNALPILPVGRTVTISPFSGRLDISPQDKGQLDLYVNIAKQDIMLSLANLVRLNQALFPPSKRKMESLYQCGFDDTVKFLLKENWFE
UniProt P0DPB6, whole entry, looked up: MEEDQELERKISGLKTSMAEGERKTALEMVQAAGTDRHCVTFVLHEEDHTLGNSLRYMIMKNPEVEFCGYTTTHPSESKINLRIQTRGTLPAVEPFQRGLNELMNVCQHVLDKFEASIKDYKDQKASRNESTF

[1] = compound: Cc1cccc(CC(=O)N2CCc3c2ccc(-c2cn(C)c4ncnc(N)c24)c3F)n1
How it was run: as §1

nilotinib = compound: Cc1cn(-c2cc(NC(=O)c3ccc(C)c(Nc4nccc(-c5cccnc5)n4)c3)cc(C(F)(F)F)c2)cn1 [nilotinib]
How it was run: as §1

[2] = compound: Cc1nc(Nc2n[nH]c3c2CN(C(=O)N[C@H](CN(C)C)c2ccccc2)C3(C)C)c2sccc2n1
How it was run: as §1

dasatinib = compound: Cc1nc(Nc2ncc(C(=O)Nc3c(C)cccc3Cl)s2)cc(N2CCN(CCO)CC2)n1 [dasatinib]
How it was run: as §1

[3] = compound: Cc1ncc(-c2ccnc(Nc3ccc(S(C)(=O)=O)cc3)n2)n1C(C)C
How it was run: as §1

[4] = compound: Cn1cc(-c2ccc3c(c2)CCN3C(=O)Cc2cccc(C(F)(F)F)c2)c2c(N)ncnc21
How it was run: as §1

mubritinib = compound: FC(F)(F)c1ccc(/C=C/c2nc(COc3ccc(CCCCn4ccnn4)cc3)co2)cc1 [mubritinib]
How it was run: as §1

[5] = compound: NC(=O)Nc1cc(-c2cccc(F)c2)sc1C(=O)N[C@H]1CCCNC1
How it was run: as §1

[6] = compound: NC(=O)c1cnc(N[C@@H]2CCCC[C@@H]2N)nc1Nc1cccc(-n2nccn2)c1
How it was run: as §1

[7] = compound: NC1(c2ccc(-c3nc4ccn5c(=O)[nH]nc5c4cc3-c3ccccc3)cc2)CCC1
How it was run: as §1

[8] = compound: NCC(=O)Nc1ccc(-n2nc(C(F)(F)F)cc2-c2ccc3c(ccc4ccccc43)c2)cc1
How it was run: as §1

entinostat = compound: Nc1ccccc1NC(=O)c1ccc(CNC(=O)OCc2cccnc2)cc1 [entinostat]
How it was run: as §1

vorinostat = compound: O=C(CCCCCCC(=O)Nc1ccccc1)NO [vorinostat]
How it was run: as §1

silmitasertib = compound: O=C(O)c1ccc2c(c1)nc(Nc1cccc(Cl)c1)c1ccncc12 [silmitasertib]
How it was run: as §1

[9] = compound: O=C1NC(=O)C(c2cnc3ccccn23)=C1c1cn2c3c(cc(F)cc13)CN(C(=O)N1CCCCC1)CC2
How it was run: as §1

[10] = compound: Cn1cc(-c2ccc3nnc(C(F)(F)c4ccc5ncccc5c4)n3n2)cn1
How it was run: as §1

tipifarnib = compound: Cn1cncc1[C@@](N)(c1ccc(Cl)cc1)c1ccc2c(c1)c(-c1cccc(Cl)c1)cc(=O)n2C [tipifarnib]
How it was run: as §1

citarinostat = compound: O=C(CCCCCCNC(=O)c1cnc(N(c2ccccc2)c2ccccc2Cl)nc1)NO [citarinostat]
How it was run: as §1

[11] = compound: c1cc(OCCN2CCCCC2)cc(-c2n[nH]c3ccc(-c4nnc[nH]4)cc23)c1
How it was run: as §1

| Target | log2 fold change (bafetinib) | log2 fold change [1] | log2 fold change (nilotinib) | log2 fold change [2] | log2 fold change (dasatinib) | log2 fold change [3] | log2 fold change [4] | log2 fold change (mubritinib) | log2 fold change [5] | log2 fold change [6] | log2 fold change [7] | log2 fold change [8] | log2 fold change (entinostat) | log2 fold change (vorinostat) | log2 fold change (silmitasertib) | log2 fold change [9] | log2 fold change [10] | log2 fold change (tipifarnib) | log2 fold change (citarinostat) | log2 fold change [11] |
| --- | --- | --- | --- | --- | --- | --- | --- | --- | --- | --- | --- | --- | --- | --- | --- | --- | --- | --- | --- | --- |
| PMVK (UniProt Q15126) | inactive: 0.057 | inactive: -0.203 | inactive: -0.214 | inactive: -0.064 | inactive: -0.308 | inactive: -0.139 | inactive: -0.098 | inactive: -0.025 | inactive: -0.04 | inactive: -0.001 | inactive: -0.114 | inactive: 0.29 | inactive: -0.08 | inactive: -0.134 | inactive: 0.065 | inactive: 0.048 |  |  |  |  |
| POM121 (UniProt Q96HA1) | inactive: -0.114 | inactive: 0.012 | inactive: 0.135 | inactive: 0 | inactive: -0.051 | inactive: -0.177 | inactive: -0.081 |  | inactive: -0.015 | inactive: -0.199 |  | inactive: -0.083 | inactive: 0.01 | inactive: 0.055 |  | inactive: 0.05 | inactive: -0.063 | inactive: 0.021 | inactive: 0.045 | inactive: -0.045 |
| POLR3H (UniProt Q9Y535) | inactive: 0.026 | inactive: -0.04 | inactive: -0.091 | inactive: -0.115 | inactive: 0.031 | inactive: 0.049 | inactive: 0.019 | inactive: 0.148 | inactive: 0.068 | inactive: -0.118 | inactive: -0.073 | inactive: -0.018 | inactive: -0.009 | inactive: 0.117 | inactive: 0.013 | inactive: 0.079 | inactive: 0.002 | inactive: -0.006 |  |  |
| PLEKHO2 (UniProt Q8TD55) | inactive: -0.082 | inactive: 0.008 | inactive: 0.004 | inactive: -0.026 |  | inactive: -0.141 | inactive: -0.189 | inactive: 0.017 |  |  | inactive: 0.031 | inactive: -0.127 |  | inactive: 0.069 | inactive: 0.17 |  | inactive: -0.001 | inactive: 0.199 | inactive: 0.1 | inactive: -0.348 |
| POLR2F (UniProt P61218) | inactive: 0.149 | inactive: -0.152 | inactive: -0.261 | inactive: -0.046 | inactive: -0.137 | inactive: 0.154 | inactive: 0.144 | inactive: 0.011 | inactive: 0.207 | inactive: 0.3 | inactive: -0.004 | inactive: 0.03 | inactive: 0.096 | inactive: 0.034 | inactive: -0.117 | inactive: 0.002 | inactive: 0.028 | inactive: -0.065 |  |  |
| PNPLA6 (UniProt Q8IY17) | inactive: -0.134 |  | inactive: 0.172 | inactive: 0.312 | inactive: 0.083 | inactive: -0.227 | inactive: 0.135 | inactive: 0.138 |  | inactive: 0.122 | inactive: 0.003 | inactive: -0.032 |  |  | inactive: -0.103 | inactive: 0.407 | inactive: 0.078 | inactive: -0.144 | inactive: 0.194 | inactive: -0.073 |
| POLR2E (UniProt P19388) | inactive: 0.055 | inactive: -0.03 | inactive: -0.007 | inactive: 0.112 | inactive: 0.025 | inactive: 0.306 | inactive: -0.056 | inactive: 0.023 |  | inactive: 0 | inactive: -0.021 | inactive: -0.02 |  | inactive: -0.115 | inactive: 0.134 | inactive: 0.117 | inactive: 0.005 | inactive: -0.088 | inactive: -0.001 | inactive: -0.088 |
| PPIP5K2 (UniProt H0Y9S9) | inactive: -0.003 |  | inactive: 0.158 | inactive: 0.005 | inactive: 0.051 | inactive: 0.011 | inactive: 0.129 | inactive: 0.076 | inactive: 0.041 |  | inactive: 0.057 |  | inactive: -0.002 |  | inactive: 0.083 | inactive: -0.017 | inactive: -0.004 | inactive: 0.007 | inactive: 0.038 | inactive: 0.032 |
| POLR2J (UniProt P52435) | inactive: -0.009 | inactive: -0.129 | inactive: 0.081 | inactive: 0.008 | inactive: -0.068 | inactive: 0.145 | inactive: 0.071 | inactive: 0.007 |  | inactive: 0.056 | inactive: 0.053 |  |  | inactive: -0.169 | inactive: 0.006 | inactive: 0.005 |  |  | inactive: 0.073 | inactive: 0.013 |
| POLQ (UniProt O75417) | inactive: -0.03 | inactive: -0.005 | inactive: -0.145 | inactive: -0.108 |  | inactive: -0.054 |  | inactive: 0.067 |  |  | inactive: -0.054 |  |  | inactive: 0.139 | inactive: 0.036 |  | inactive: 0.025 |  |  |  |
| PNPLA4 (UniProt P41247) | inactive: -0.339 |  | inactive: 0.128 | inactive: -0.019 | inactive: -0.165 | inactive: -0.001 | inactive: 0.156 | active: 0.826 | inactive: 0 | inactive: -0.118 | inactive: -0.357 | inactive: 0.131 | inactive: -0.093 |  | inactive: 0.012 |  | inactive: 0.078 | inactive: -0.039 | inactive: 0.602 | inactive: -0.071 |
| POLR1D (UniProt P0DPB6) | inactive: -0.233 |  | inactive: -0.04 | inactive: -0.157 | inactive: -0.125 | inactive: -0.023 | inactive: -0.221 | inactive: -0.038 | inactive: -0.021 | inactive: -0.057 | inactive: 0.01 | inactive: -0.09 | inactive: 0.136 |  | inactive: 0.06 | inactive: 0.092 | inactive: 0.008 | inactive: 0 | inactive: -0.013 | inactive: 0.014 |

Laid out differently: entries from further up.
Target	log2 fold change (bafetinib)	log2 fold change [1]	log2 fold change (nilotinib)	log2 fold change [2]	log2 fold change (dasatinib)	log2 fold change [3]	log2 fold change [4]	log2 fold change (mubritinib)	log2 fold change [5]	log2 fold change [6]	log2 fold change [7]	log2 fold change [8]	log2 fold change (entinostat)	log2 fold change (vorinostat)	log2 fold change (silmitasertib)	log2 fold change [9]	log2 fold change [10]	log2 fold change (tipifarnib)	log2 fold change (citarinostat)	log2 fold change [11]
PMVK (UniProt Q15126)	inactive: 0.057	inactive: -0.203	inactive: -0.214	inactive: -0.064	inactive: -0.308	inactive: -0.139	inactive: -0.098	inactive: -0.025	inactive: -0.04	inactive: -0.001	inactive: -0.114	inactive: 0.29	inactive: -0.08	inactive: -0.134	inactive: 0.065	inactive: 0.048				
POM121 (UniProt Q96HA1)	inactive: -0.114	inactive: 0.012	inactive: 0.135	inactive: 0	inactive: -0.051	inactive: -0.177	inactive: -0.081		inactive: -0.015	inactive: -0.199		inactive: -0.083	inactive: 0.01	inactive: 0.055		inactive: 0.05	inactive: -0.063	inactive: 0.021	inactive: 0.045	inactive: -0.045
POLR3H (UniProt Q9Y535)	inactive: 0.026	inactive: -0.04	inactive: -0.091	inactive: -0.115	inactive: 0.031	inactive: 0.049	inactive: 0.019	inactive: 0.148	inactive: 0.068	inactive: -0.118	inactive: -0.073	inactive: -0.018	inactive: -0.009	inactive: 0.117	inactive: 0.013	inactive: 0.079	inactive: 0.002	inactive: -0.006		
